From patent publication US7601352
These are yes or no findings as the source states them, for the method shown. Some binding calls cover weakened binding; strength is not graded here.

Protein sequences, listed by entry. Tags and fused reporters are not part of them. Lines headed by an entry give the natural chain unless they say otherwise; changes in a name come on top. Chains listed by the source or under a name are the forms on record and can include a tag or linker. Residues count along the entry.
UniProt P04629: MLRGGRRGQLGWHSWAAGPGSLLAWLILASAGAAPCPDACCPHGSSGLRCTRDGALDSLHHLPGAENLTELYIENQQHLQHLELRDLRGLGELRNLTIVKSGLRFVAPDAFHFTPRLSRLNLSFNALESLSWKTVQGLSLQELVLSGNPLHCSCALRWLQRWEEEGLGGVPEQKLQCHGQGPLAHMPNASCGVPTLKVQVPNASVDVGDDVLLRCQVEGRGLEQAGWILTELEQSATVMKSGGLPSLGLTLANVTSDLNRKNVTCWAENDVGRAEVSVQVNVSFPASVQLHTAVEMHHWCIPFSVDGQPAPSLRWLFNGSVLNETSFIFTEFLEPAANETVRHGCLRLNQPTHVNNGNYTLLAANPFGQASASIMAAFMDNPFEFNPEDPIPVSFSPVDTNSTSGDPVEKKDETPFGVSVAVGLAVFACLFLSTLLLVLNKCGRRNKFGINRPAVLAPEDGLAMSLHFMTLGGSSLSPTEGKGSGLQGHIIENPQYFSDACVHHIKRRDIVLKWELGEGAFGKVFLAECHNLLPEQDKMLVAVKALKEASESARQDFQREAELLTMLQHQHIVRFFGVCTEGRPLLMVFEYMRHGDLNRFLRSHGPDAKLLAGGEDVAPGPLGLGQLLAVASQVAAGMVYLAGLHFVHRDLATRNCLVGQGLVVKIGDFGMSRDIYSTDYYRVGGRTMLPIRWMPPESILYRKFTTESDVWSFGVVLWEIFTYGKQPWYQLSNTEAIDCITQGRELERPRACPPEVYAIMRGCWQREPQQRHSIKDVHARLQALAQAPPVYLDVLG
human TrkA receptor expressed on Balb/C 3T3 cells: residues 33-796 of P04629
TrkA immunoadhesin (extracellular domain of human TrkA fused to camel IgG2 Fc): residues 33-423 of P04629
UniProt P35739, residues 33-799: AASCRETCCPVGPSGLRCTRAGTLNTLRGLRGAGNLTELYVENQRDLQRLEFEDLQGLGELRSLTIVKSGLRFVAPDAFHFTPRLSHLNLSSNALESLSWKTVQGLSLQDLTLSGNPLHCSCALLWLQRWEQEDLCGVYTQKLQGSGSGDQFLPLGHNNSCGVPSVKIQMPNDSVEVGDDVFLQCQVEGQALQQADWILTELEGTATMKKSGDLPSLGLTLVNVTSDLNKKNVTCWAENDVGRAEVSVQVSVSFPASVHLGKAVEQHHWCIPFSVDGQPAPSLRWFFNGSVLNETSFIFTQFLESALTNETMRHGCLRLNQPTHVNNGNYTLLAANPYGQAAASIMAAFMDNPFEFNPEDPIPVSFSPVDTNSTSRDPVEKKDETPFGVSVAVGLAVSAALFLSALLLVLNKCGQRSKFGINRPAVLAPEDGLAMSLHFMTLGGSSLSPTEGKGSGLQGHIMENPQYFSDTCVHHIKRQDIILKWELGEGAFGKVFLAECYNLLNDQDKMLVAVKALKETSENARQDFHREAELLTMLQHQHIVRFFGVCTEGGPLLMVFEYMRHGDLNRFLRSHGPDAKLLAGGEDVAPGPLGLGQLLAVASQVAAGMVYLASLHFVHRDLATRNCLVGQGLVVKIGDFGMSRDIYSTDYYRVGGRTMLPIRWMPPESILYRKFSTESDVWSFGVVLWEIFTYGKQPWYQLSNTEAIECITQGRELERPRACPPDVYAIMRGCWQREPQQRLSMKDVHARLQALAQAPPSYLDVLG

Legend:
[1] = biological target: TrkA immunoadhesin (extracellular domain of human TrkA fused to camel IgG2 Fc) (human; camel) (UniProt P04629); assay: ELISA, TrkA-IgG on solid phase, 2 or 20 ng/ml antibody
[2] = biological target: TrkA immunoadhesin (extracellular domain of human TrkA fused to camel IgG2 Fc) (human; camel) (UniProt P04629); assay: competition ELISA, TrkA immunoadhesin on solid phase, soluble TrkA immunoadhesin as competitor
[3] = biological target: human TrkA receptor expressed on Balb/C 3T3 cells (human) (UniProt P04629); assay: FACS on TrkA+ Balb/C 3T3 cells against Balb/C 3T3 cells
[4] = biological target: human TrkA receptor expressed on Balb/C 3T3 cells (human) (UniProt P04629); assay: inhibition of 125I-NGF binding to TrkA+ Balb/C 3T3 cells
rat TrkA receptor (rat) [5] = biological target: rat TrkA receptor (rat) (UniProt P35739); assay: immunohistochemistry on rat basal forebrain sections
[6] = biological target: human TrkA receptor expressed on Balb/C 3T3 cells (human) (UniProt P04629); assay: FACS on 3T3 TrkA+ cells; confirmed by immunofluorescence
rat TrkA receptor (rat) [7] = biological target: rat TrkA receptor (rat) (UniProt P35739); assay: immunohistochemistry on P10 rat basal forebrain sections

- binding [1]: binds
- binding [2]: binds
- binding [3]: binds
- binding [4]: binds
- binding (rat TrkA receptor (rat) [5]): binds
- binding [6]: binds
- binding (rat TrkA receptor (rat) [7]): binds
B1: MNAC13 monoclonal antibody (antibody, V domains shown)
VH: VKLMESGGGLVQPGGSLKLSCAASGFTFSTYTMSWARQTPEKRLEWVAYISKGGGSTYYPDTVKGRFTISRDNAKNTLYLQMSSLKSEDTALYYCARGAMYGNDFFYPMDYWGQGTSVTVSS
VL: DIVLSQSPAIMSASLGEEITLTCSASSSVSYMHWYQQKSGTSPKLLIYTTSNLASGVPSRFSGSGSGTFYSLTISSVEAEDAADYYCHQWSSYPWTFGGGTKLEIKR
